Negatives hold for the conditions tested. For part of these data: Protein sequences can lack the tags named with them.
Tests used:
Assay in all cases: EMSA
YTHDF2 (Homo sapiens) = target: T1, YTHDF2 (Homo sapiens) (UniProt Q9Y5A9); conditions: 1 mM MgCl2, very little or no binding, up to 5 uM protein; m6A at position 5 of each strand; EMSA: 10 mM HEPES pH 7.3, 5% glycerol, 20 mM KCl, 1 mM MgCl2, 1 mM DTT, RNasin, 4 nM RNA, 4 C; recombinant protein; residues 385-576; label: 3' biotin
T1 sequence (looked up): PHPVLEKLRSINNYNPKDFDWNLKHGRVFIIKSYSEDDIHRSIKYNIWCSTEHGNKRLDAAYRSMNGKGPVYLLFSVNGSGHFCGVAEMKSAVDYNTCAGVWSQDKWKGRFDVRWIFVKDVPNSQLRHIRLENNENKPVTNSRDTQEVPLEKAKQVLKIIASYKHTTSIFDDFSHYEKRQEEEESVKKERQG

Chains of the proteins cited; added tags and fusions are not shown. Residues count along the entry.
UniProt Q6P6C2, 66-292: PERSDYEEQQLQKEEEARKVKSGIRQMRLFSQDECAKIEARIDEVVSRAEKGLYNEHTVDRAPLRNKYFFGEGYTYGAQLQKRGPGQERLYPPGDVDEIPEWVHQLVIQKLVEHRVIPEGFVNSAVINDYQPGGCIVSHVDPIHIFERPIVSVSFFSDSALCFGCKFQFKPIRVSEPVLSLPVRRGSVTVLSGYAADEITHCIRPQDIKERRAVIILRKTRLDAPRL

FTO (Homo sapiens) = FTO (Homo sapiens) (UniProt Q9C0B1); conditions: 1 mM MgCl2, authors suspect biotin label blocks binding (unlabelled 25 binds in MST); m6A at position 5; EMSA: 10 mM HEPES pH 7.3, 5% glycerol, 20 mM KCl, 1 mM MgCl2, 1 mM DTT, RNasin, 4 nM RNA, 4 C; recombinant protein; residues 1-505; protein details: His6 (pNIC28-Bsa4); label: 3' biotin
ALKBH5 (Homo sapiens) = ALKBH5 (Homo sapiens) (UniProt Q6P6C2); conditions: 1 mM MgCl2, authors suspect biotin label blocks binding (unlabelled 25 binds in MST); m6A at position 5; EMSA: 10 mM HEPES pH 7.3, 5% glycerol, 20 mM KCl, 1 mM MgCl2, 1 mM DTT, RNasin, 4 nM RNA, 4 C; recombinant protein; residues 66-292; protein details: His6 (pNIC28-Bsa4); label: 3' biotin

GCGGACUAGUCCGC / GCGGACUAGUCCGC [biotin-15]
binding result (YTHDF2 (Homo sapiens)): no binding

GCGGACUCCACCGC [biotin-25]
binding result (FTO (Homo sapiens)): no binding
binding result (ALKBH5 (Homo sapiens)): no binding
